Results as given in patent publication US5147794.
For at least one entry, the source does not settle the construct or the ends of the probe.

What was measured:
Experiment in all cases: enzyme reaction in vitro
[1] = tested on: KasI restriction endonuclease (native) (Kluyvera ascorbata); conditions: purified native protein
[2] = tested on: NarI restriction endonuclease; conditions: isoschizomer of KasI used for comparison; 37 C
[3] = tested on: KasI restriction endonuclease (recombinant) (Kluyvera ascorbata); conditions: HindIII-cut lambda DNA; 10 mM Tris pH 7.5, 10 mM Mg, 1 mM DTT; 95% of ligated fragments recut; purified recombinant protein

GGCGCC (double strand) [M13mp18 DNA (KasI site)]
activity on this sequence ([1]; one cleavage position): active

GGCGCC (double strand) [T7 DNA (KasI sites)]
activity on this sequence ([1]; two cleavage positions (abstract), 50 mM NaCl, 10 mM Tris pH 7.4, 10 mM MgCl2, 37 C): active

GGCGCC (double strand) [PhiX174 DNA, printed PhiX172 (KasI sites)]
activity on this sequence ([1]; two cleavage positions): active

GGCGCC (double strand) [KasI/NarI site in pUC19]
activity on this sequence [2]: active

GGCGCC (double strand) [KasI recognition site (lambda DNA)]
activity on this sequence ([1]; activity detected in K. ascorbata supernatant, 50 mM NaCl, 10 mM Tris, 10 mM MgCl2, 37 C): active | activity on this sequence [3]: active
